Experimental data: PubChem BioAssay AID652243 (Drosophila RNAi Screening Center, 2013)
In all, the deposit lists about 24,000 reagents; below is a random part of those with a known target gene and a result. Of all reagents, 246 (1%) got an active call. 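Plates not normalised; calls are printed but the firefly/Renilla ratio behind them is not deposited; fold cut for lowering reported inconsistently.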 Raw values vary from plate to plate and are shown uncorrected. Names joined by + are all predicted targets of the reagent. Reagent sequences are not shown. The record does not give: the amount of reagent.

Aim: 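Fly genes required for human androgen receptor driven transcription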 (primary screen)
System: Drosophila S2R+ cells
Reagents: long dsRNA against Drosophila genes
Duration: 72 h (48 h, then 24 h hormone)
Challenge: synthetic androgen R1881 at 10 nM for 24 h
Detection: 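Per-well raw luminescence of the androgen-driven firefly reporter and of the Renilla control, two replicates each, without normalisation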
Scale: firefly reporter light: higher = more light from androgen-responsive reporter; Renilla control light: higher = more constitutive control signal (cell number, transfection)
Call rule: 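Across duplicate plates, a knock-down whose log firefly/Renilla ratio shifted a set fold down or up from the GFP/LacZ control mean was a hit; the downward cut appears as both 1.5 and 3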
Calls: active = hit: reporter lowered or raised; inactive = no hit

| firefly reporter light, replicate 1 | firefly reporter light, replicate 2 | Renilla control light, replicate 1 | Renilla control light, replicate 2 | call | Target gene | amplicon |
| --- | --- | --- | --- | --- | --- | --- |
| 1.21e6 | 9.76e5 | 2.21e6 | 2.19e6 | inactive | CG34338 | DRSC38801 |
| 2.43e5 | 2.40e5 | 3.86e5 | 5.43e5 | inactive | pum (pumilio) | DRSC12726 |
| 1.90e5 | 1.90e5 | 1.90e6 | 3.49e6 | inactive | pum (pumilio) | DRSC17038 |
| 8.40e5 | 1.33e6 | 1.50e6 | 3.02e6 | inactive | pum (pumilio) | DRSC22758 |
| 5.92e5 | 9.57e5 | 1.45e6 | 2.25e6 | inactive | pum (pumilio) | DRSC22794 |
| 4.32e5 | 4.03e5 | 5.79e5 | 4.19e5 | inactive | pum (pumilio) | DRSC23430 |
| 42157 | 24801 | 5.93e5 | 4.08e5 | inactive | CG11905 | DRSC09863 |
| 9.29e5 | 8.68e5 | 8.08e5 | 9.62e5 | inactive | CG11905 | DRSC24702 |
| 1.08e5 | 1.31e5 | 1.23e6 | 1.23e6 | inactive | unc-45 (uncoordinated 45) | DRSC15449 |
| 7.11e5 | 8.82e5 | 1.35e6 | 1.68e6 | inactive | Dso2 (Daisho2) | DRSC37896 |
| 26427 | 27491 | 1.54e6 | 1.17e6 | inactive | Ccp84Ad | DRSC12589 |
| 5.48e5 | 9.09e5 | 1.22e6 | 1.64e6 | inactive | Ccp84Ad | DRSC22854 |
| 3.72e5 | 4.79e5 | 3.37e6 | 4.32e6 | inactive | CG13403 | DRSC19535 |
| 2.97e5 | 2.18e5 | 8.51e5 | 7.34e5 | inactive | CG13403 | DRSC26850 |
| 2.22e5 | 2.65e5 | 2.68e6 | 2.53e6 | inactive | ppk24 (pickpocket 24) | DRSC15093 |
| 1.64e5 | 1.35e5 | 9.51e5 | 9.56e5 | inactive | Etf-QO (Electron transfer flavoprotein-ubiquinone oxidoreductase) | DRSC06111 |
| 1.10e6 | 1.14e6 | 1.88e6 | 2.24e6 | inactive | CG34208 | DRSC38718 |
| 80360 | 97019 | 1.01e6 | 8.63e5 | inactive | Drice (Death related ICE-like caspase) | DRSC16715 |
| 2.07e5 | 2.06e5 | 5.14e5 | 8.04e5 | inactive | Drice (Death related ICE-like caspase) | DRSC27804 |
| 51767 | 1.58e5 | 1.48e6 | 1.48e6 | inactive | fl(2)d (female lethal d) | DRSC07620 |
| 60862 | 44112 | 3.78e5 | 4.66e5 | inactive | scpr-B (SCP-containing protein B) | DRSC15200 |
| 89522 | 36634 | 9.23e5 | 6.34e5 | inactive | Eip74EF (Ecdysone-induced protein 74EF) | DRSC11160 |
| 8.83e5 | 5.70e5 | 8.90e5 | 6.06e5 | inactive | Eip74EF (Ecdysone-induced protein 74EF) | DRSC23794 |
| 3.02e5 | 2.26e5 | 2.45e6 | 1.94e6 | active | flz (filzig) | DRSC07109 |
| 7.98e5 | 5.85e5 | 1.43e6 | 1.00e6 | inactive | asRNA:CR31084 + CG34291 | DRSC38762 |
| 1.09e5 | 1.52e5 | 1.55e6 | 2.37e6 | inactive | Kdm3 (Lysine demethylase 3) | DRSC16393 |
| 6.49e5 | 5.24e5 | 1.72e6 | 1.59e6 | inactive | Kdm3 (Lysine demethylase 3) | DRSC28659 |
| 1.72e5 | 1.68e5 | 1.10e6 | 1.93e6 | inactive | qjt (quijote) | DRSC10060 |
| 8.07e5 | 8.47e5 | 9.05e5 | 9.57e5 | inactive | qjt (quijote) | DRSC24901 |
| 2.39e5 | 1.24e5 | 1.82e6 | 1.52e6 | inactive | stai (stathmin) | DRSC02920 |
| 7.30e5 | 9.17e5 | 1.46e6 | 1.24e6 | inactive | stai (stathmin) | DRSC22235 |
| 4.34e5 | 9.16e5 | 8.13e5 | 1.20e6 | inactive | stai (stathmin) | DRSC28369 |
| 8.95e5 | 7.35e5 | 1.46e6 | 8.79e5 | inactive | CG12182 | DRSC08142 |
| 90590 | 94375 | 7.45e5 | 6.31e5 | inactive | Csp (Cysteine string protein) | DRSC11860 |
| 1.15e6 | 9.14e5 | 1.46e6 | 1.76e6 | inactive | CG10984 | DRSC09817 |
| 4.44e5 | 1.01e6 | 1.16e6 | 1.64e6 | inactive | CG10984 | DRSC28387 |
| 2.93e5 | 2.49e5 | 3.00e6 | 3.35e6 | inactive | CG7202 | DRSC11818 |
| 3.56e5 | 4.01e5 | 9.57e5 | 9.64e5 | inactive | CG7202 | DRSC25884 |
| 1.05e5 | 97057 | 1.06e6 | 1.05e6 | inactive | pyx (pyrexia) | DRSC08510 |
| 72333 | 62122 | 1.23e6 | 1.11e6 | inactive | pyx (pyrexia) | DRSC08511 |
| 6.00e5 | 4.69e5 | 1.37e6 | 1.33e6 | inactive | pyx (pyrexia) | DRSC28167 |
| 5.77e5 | 5.92e5 | 2.03e6 | 2.05e6 | inactive | Gr93d (Gustatory receptor 93d) | DRSC21941 |
| 1.44e5 | 1.25e5 | 1.50e6 | 1.47e6 | inactive | CG12483 | DRSC08278 |
| 1.75e5 | 96258 | 2.96e5 | 3.30e5 | inactive | Gr47b (Gustatory receptor 47b) | DRSC05275 |
| 75774 | 50537 | 4.25e5 | 3.34e5 | inactive | CG6693 | DRSC16097 |
| 4.44e5 | 3.87e5 | 2.02e6 | 1.54e6 | inactive | CG6693 | DRSC28189 |
| 3.29e5 | 3.20e5 | 1.61e6 | 1.17e6 | inactive | yellow-d2 | DRSC04591 |
| 64174 | 73158 | 2.67e5 | 3.87e5 | inactive | CG9393 | DRSC16486 |
| 1.60e5 | 1.45e5 | 2.01e6 | 2.36e6 | inactive | Rift (Riboflavin transporter) | DRSC14330 |
| 2.96e5 | 3.31e5 | 1.87e6 | 2.41e6 | inactive | can (cannonball) | DRSC10664 |
| 5.07e5 | 4.02e5 | 3.09e6 | 2.49e6 | inactive | eIF4H1 (eukaryotic translation initiation factor 4H1) | DRSC20276 |
| 3.90e5 | 2.73e5 | 9.77e5 | 8.06e5 | inactive | CG34431 | DRSC29884 |
| 2.73e5 | 2.60e5 | 2.26e6 | 3.32e6 | inactive | CecA2 (Cecropin A2) | DRSC16604 |
| 5.48e5 | 8.71e5 | 1.75e6 | 2.35e6 | inactive | rut (rutabaga) | DRSC22976 |
| 5.41e5 | 5.45e5 | 1.35e6 | 1.54e6 | inactive | rut (rutabaga) | DRSC39112 |
| 73657 | 97738 | 1.30e6 | 1.16e6 | inactive | Bbd (Bombardier) | DRSC06709 |
| 6.45e5 | 7.62e5 | 2.68e6 | 3.49e6 | inactive | MtnA (Metallothionein A) | DRSC21588 |
| 1.03e5 | 1.35e5 | 1.31e6 | 1.12e6 | inactive | CG15172 | DRSC02473 |
| 2.27e5 | 3.20e5 | 7.47e5 | 8.22e5 | inactive | CG15172 | DRSC27372 |

Targets above whose target name starts with G or g:
| firefly reporter light, replicate 1 | firefly reporter light, replicate 2 | Renilla control light, replicate 1 | Renilla control light, replicate 2 | call | Target gene | amplicon |
| --- | --- | --- | --- | --- | --- | --- |
| 5.77e5 | 5.92e5 | 2.03e6 | 2.05e6 | inactive | Gr93d (Gustatory receptor 93d) | DRSC21941 |
| 1.75e5 | 96258 | 2.96e5 | 3.30e5 | inactive | Gr47b (Gustatory receptor 47b) | DRSC05275 |
